Results from the supplement of paper PMC10735217.
The list shows a part of the results. Single values are uncertain here, since repeats match poorly.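 Human kidney-derived cells stably carry a construct in which eight TEAD-binding elements drive luciferase, measured by luminescence in a drug-repurposing library screen. A hit is any compound whose signal exceeds the plate mean by more than five robust Z scores.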

Tested on: HEK293A TEAD-LUC reporter
Experiment: TEAD-luciferase reporter activity (YAP activation), robust Z score vs plate; higher = stronger YAP/TEAD activation
Details: 24 h

| SMILES | TEAD-luciferase reporter activity (compound concentration: 200 nM) | TEAD-luciferase reporter activity (compound concentration: 2 uM) | TEAD-luciferase reporter activity (compound concentration: 10 uM) |
| --- | --- | --- | --- |
| O=C(C(=O)N1CCN(Cc2ccccc2)CC1)c1c[nH]c2ccccc12 | inactive: -1.42 | inactive: -0.631 | inactive: 2.7 |
| CCC[C@@H](NC(=O)N1C(=O)C(CC)(CC)[C@@H]1Oc1ccc(C(=O)N2CCN(C)CC2)cc1)c1ccc2c(c1)OCO2 | inactive: -2.72 | inactive: -0.693 | inactive: 0.276 |
| O=C(NC1CC1)c1cn(-c2cccc(-c3ccc([C@@H]4C[C@H]4C(=O)O)c(F)c3)c2)c2ncccc2c1=O | inactive: -0.26 | inactive: 0.539 | inactive: -0.424 |
| CNC(=N)NCCC[C@H](N)C(=O)O [L-Ornithine, N5-[imino(methylamino)methyl]-] | inactive: -0.458 | – | inactive: 0.612 |
| CNC(=N)NCCC[C@H](N)C(=O)O [tilarginine acetate] | – | inactive: -1.51 | – |
| Nc1nc(N)c2c(n1)NCC(CO)N2 (configuration not stated) | inactive: -1.58 | inactive: -1.47 | inactive: -0.988 |
| c1ccc2c(c1)CC[C@@H](CNCCCNC1=NCCCN1)O2 | inactive: -0.31 | inactive: -1.12 | inactive: 0.433 |
| O=C1c2cccc3cc([N+](=O)[O-])cc(c23)C(=O)N1NCCO | inactive: -0.0338 | inactive: 0.73 | inactive: -2.04 |
| NS(=O)(=O)c1cc(C(=O)O)c(NCc2ccco2)cc1Cl | inactive: 0.0703 | – | inactive: 0.263 |
| NS(=O)(=O)c1cc(C(=O)O)c(NCc2ccco2)cc1Cl [furosemide AcuForm] | – | inactive: 2.98 | – |
| CCCCC1=Cc2cc3c(cc2C1N1CCN(C)CC1)OCO3 (configuration not stated) | inactive: 0.308 | inactive: 1.07 | inactive: 1.21 |
| CCNC(=O)Nc1ccc(-c2nc3c(c(N4CCOC[C@@H]4C)n2)CCN(C2COC2)C3)cc1 | inactive: -2.48 | inactive: -1.58 | inactive: -0.44 |
| O=P(O)(O)COc1ccc(CCNC[C@H](O)COc2ccc(O)cc2)cc1 | inactive: -0.992 | inactive: -0.186 | inactive: 0.178 |
| O=C(Nc1ccc(-c2ccnc(Nc3ccc(N4CCOCC4)cc3)n2)cc1)[C@@H]1CCCN1 | inactive: 0.0511 | inactive: 0.396 | active: 6.38 |
| Cc1[nH]c2ccccc2c1C[C@@H](NC(=O)[C@@H](Cc1c(C)[nH]c2ccccc12)NC(=O)C(C)(C)N)C(N)=O | inactive: -0.612 | inactive: -0.667 | inactive: -1.61 |
| CCOC(=O)Nc1nc(N)c2c(n1)NCCC(c1ccccc1)=N2 | inactive: -0.231 | inactive: -2.42 | inactive: -0.913 |

Quoted from the listing.
Entry for CNC(=N)NCCC[C@H](N)C(=O)O [L-Ornithine, N5-[imino(methylamino)methyl]-] under TEAD-luciferase reporter activity (compound concentration: 200 nM): inactive: -0.458
Entry for CCNC(=O)Nc1ccc(-c2nc3c(c(N4CCOC[C@@H]4C)n2)CCN(C2COC2)C3)cc1 under TEAD-luciferase reporter activity (compound concentration: 200 nM): inactive: -2.48
